Data published in patent US8133847B2, “Pyrido[2,3-B]pyrazine derivatives useful as herbicidal compounds” (Syngenta Limited, priority 2006, dated 2012).
Some of these results come from one statement about several compounds together. For some of these results: At least one structure is not confirmed: it was looked up by name or label, or the drawing left a doubt.

System: test plants (a variety of test species)
Assay: Example B1 herbicidal action, post-emergence, 96-cell seed trays, climatic chamber
Type: in vivo
Settings: spray 1000 mg/l equivalent to 1000 g/ha, evaluated after 9 days, 100=total damage to plant, 0=no damage to plant

Row | Compound | damage to the test plants
1 | COc1ccccc1-c1c(O)c2nccnc2[nH]c1=O [Compound A7] | no damage
2 | CCc1cc(C)cc(CC)c1-c1c(O)c2nccnc2[nH]c1=O [Compound A12] | no damage
3 | O=c1[nH]c2nccnc2c(O)c1-c1c(F)cccc1C(F)(F)F [Compound A16] | no damage
4 | CC(C)(C)C(=O)Oc1c(-c2c(F)ccc(F)c2Cl)c(=O)[nH]c2nccnc12 [Compound B6] | no damage
5 | CCC(=O)Oc1c(-c2ccccc2OC(F)(F)F)c(=O)[nH]c2nccnc12 [Compound B7] | no damage
6 | CCc1cc(C)cc(CC)c1-c1c(OC(C)=O)c2nccnc2[nH]c1=O [Compound B9] | no damage
7 | CCOC(=O)Oc1c(-c2c(Cl)cccc2Cl)c(=O)[nH]c2nccnc12 [Compound B12] | no damage
8 | CC(C)(C)C(=O)Oc1c(-c2c(Cl)cccc2Cl)c(=O)[nH]c2nccnc12 [Compound B13] | no damage
9 | CCCC(=O)Oc1c(-c2c(Cl)cccc2Cl)c(=O)[nH]c2nccnc12 [Compound B14] | no damage
10 | O=C(Oc1c(-c2c(Cl)cc(C(F)(F)F)cc2Cl)c(=O)[nH]c2nccnc12)C1CC1 [Compound B16] | no damage
11 | CS(=O)(=O)Oc1c(-c2c(F)ccc(F)c2Cl)c(=O)[nH]c2nccnc12 [Compound B18] | no damage
12 | CC(C)C(=O)Oc1c(-c2c(Cl)cccc2Cl)c(=O)[nH]c2ncc(Br)nc12 [Compound B19] | no damage
13 | CC(C)C(=O)Oc1c(-c2c(Cl)cccc2Cl)c(=O)[nH]c2ncc(Cl)nc12 [Compound B20] | no damage
14 | CC(C)C(=O)Oc1c(-c2cccc(Cl)c2Cl)c(=O)[nH]c2nccnc12 [Compound B21] | no damage
15 | CC(C)(C)C(=O)Oc1c(-c2ccccc2Cl)c(=O)[nH]c2nccnc12 [Compound B22] | no damage
16 | CC(C)(C)C(=O)Oc1c(-c2c(F)ccc(F)c2F)c(=O)[nH]c2nccnc12 [Compound B23] | no damage

Row | Compound | damage to the test plants
17 | CC(C)C(=O)Oc1c(-c2c(F)ccc(F)c2F)c(=O)[nH]c2nccnc12 [Compound B24] | no damage
18 | CC(=O)Oc1c(-c2ccccc2Cl)c(=O)[nH]c2nccnc12 [Compound B25] | no damage
19 | CC(=O)Oc1c(-c2cccc(Cl)c2)c(=O)[nH]c2nccnc12 [Compound B26] | no damage
20 | CC(=O)Oc1c(-c2ccc(Cl)cc2)c(=O)[nH]c2nccnc12 [Compound B27] | no damage
21 | CC#CCOC(=O)Oc1c(-c2c(F)ccc(F)c2Cl)c(=O)[nH]c2nccnc12 [Compound B28] | no damage
22 | CC(=O)Oc1c(-c2ccc(Cl)c(Cl)c2)c(=O)[nH]c2nccnc12 [Compound B29, acetic acid 7-(3,4-dichlorophenyl)-6-oxo-5,6-dihydro-pyrido[2,3-b]pyrazin-8-yl ester] | no damage
23 | Cc1cc(C)c(-c2c(OC(=O)C(C)C)c3nccnc3[nH]c2=O)c(C)c1 [Compound B30] | no damage
24 | CC(C)C(=O)Oc1c(-c2c(Cl)cccc2C(F)(F)F)c(=O)[nH]c2nccnc12 [Compound B31] | no damage
25 | CC(C)C(=O)Oc1c(-c2cccc(C(F)(F)F)c2Cl)c(=O)[nH]c2nccnc12 [Compound B32] | no damage
26 | CC(C)S(=O)(=O)Oc1c(-c2c(F)ccc(F)c2Cl)c(=O)[nH]c2nccnc12 [Compound B34] | no damage
27 | CC(C)(C)OC(=O)Oc1c(-c2c(F)ccc(F)c2Cl)c(=O)[nH]c2nccnc12 [Compound B35] | no damage
28 | Cc1ccc(Cl)c(-c2c(OC(=O)C(C)C)c3nccnc3[nH]c2=O)c1F [Compound B36] | no damage
29 | CC(C)(C)C(=O)Oc1c(-c2cc(C(F)(F)F)ccc2Cl)c(=O)[nH]c2nccnc12 [Compound B39] | no damage
30 | COc1c(-c2c(Cl)cc(C(F)(F)F)cc2Cl)c(=O)n(C)c2nccnc12 [Compound C42] | no damage
31 | COc1ccccc1-c1c(OC(=O)C(C)(C)C)c2nccnc2n(C)c1=O [Compound C106] | no damage

System: test plants (a variety of test species)
Assay: Example B3 herbicidal action, post-emergence, small pots in glasshouse (all test plants)
Type: in vivo
Settings: 1000 g/ha, evaluated after 13 days, 100=total damage to plant, 0=no damage to plant

Row | Compound | damage to the test plants
32 | COc1ccc(OC(F)(F)F)cc1-c1c(O)c2nccnc2[nH]c1=O [Compound A42] | no damage
33 | O=c1[nH]c2nccnc2c(O)c1-c1c(F)c([N+](=O)[O-])cc(F)c1Cl [Compound A44] | no damage
34 | CC(C)(C)C(=O)Oc1c(-c2ccccc2)c(=O)[nH]c2nccnc12 [Compound B43] | no damage
35 | COc1cccc(-c2c(OC(=O)C(C)C)c3nccnc3[nH]c2=O)c1OC [Compound B52] | no damage
36 | COc1cccc(-c2c(OC(=O)C(C)(C)C)c3nccnc3[nH]c2=O)c1OC [Compound B53] | no damage
37 | COc1ccc(OC(F)(F)F)cc1-c1c(OC(=O)C(C)C)c2nccnc2[nH]c1=O [Compound B55] | no damage
38 | COc1ccc(OC(F)(F)F)cc1-c1c(OC(=O)C(C)(C)C)c2nccnc2[nH]c1=O [Compound B56] | no damage
39 | CC(C)(C)C(=O)Oc1c(-c2c(F)c([N+](=O)[O-])cc(F)c2Cl)c(=O)[nH]c2nccnc12 [Compound B57] | no damage
40 | Cc1cccc([N+](=O)[O-])c1-c1c(O)c2nccnc2n(C)c1=O [Compound D12] | no damage
